For six molecules, binding results are on record in patent US20140056907A1.

Amino acid sequences for entries named in this document (tags omitted).
UniProt P55926: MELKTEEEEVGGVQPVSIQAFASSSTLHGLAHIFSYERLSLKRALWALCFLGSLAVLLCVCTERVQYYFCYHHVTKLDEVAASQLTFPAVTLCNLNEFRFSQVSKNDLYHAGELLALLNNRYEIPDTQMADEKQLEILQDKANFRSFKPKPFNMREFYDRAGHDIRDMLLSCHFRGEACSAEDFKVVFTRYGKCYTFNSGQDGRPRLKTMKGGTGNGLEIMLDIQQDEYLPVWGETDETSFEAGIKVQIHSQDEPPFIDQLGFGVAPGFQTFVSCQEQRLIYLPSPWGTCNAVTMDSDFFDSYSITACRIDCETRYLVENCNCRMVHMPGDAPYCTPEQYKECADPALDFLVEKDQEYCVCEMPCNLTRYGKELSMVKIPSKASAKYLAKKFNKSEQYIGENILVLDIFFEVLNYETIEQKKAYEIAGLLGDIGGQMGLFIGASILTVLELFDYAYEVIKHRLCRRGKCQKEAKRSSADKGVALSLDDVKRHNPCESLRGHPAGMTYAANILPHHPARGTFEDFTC

In test [1] the target is rat ASIC1 (rat) (UniProt P55926). As to the kind of experiment: FACS, undifferentiated ND7 cells. A general note: A flow cytometer gives signals particle by particle.
For test [2] the target is unchanged. As to the kind of experiment: FACS, differentiated ND7 cells.

Results are given in words; binding and its absence hold for the method and conditions named. Some binding calls cover weakened binding; strength is not graded here.

B1: H1M7101N (antibody, mouse IgG1, V domains shown)
VH: EVQLLASGGGLVQTGGSLRLSCAASGFTFSSFAMSWVRQAPGKGLEWVSGISGSGGSTYYADSVKGRFTISRDNSKNTLYLQMNSLRAEDTAAYYCAKEAYKWQPWGQGIRVTVSS
VL: DIQMTQSPSTLSASVGDRVTITCRASQSISSWLAWYQQKPGKAPNLLIYKTSNLESGVPSRFSGSGSGTEFTLTISSLQPDDFATYYCQQYNSYSYTFGQGTKLEIK
Take B1: in the test with rat ASIC1 (rat) [1], the binding entry was “binds”.

B2: H3M7102N (antibody, V domains shown)
VH: EVQLLASGGGLVQPGGSLRLSCAASGFTFSSFAMSWVRQAPGKGLEWVSGISGSGGSTYYADSVKGRFTISRDNSKNTLYLQMNSLRAEDTAAYYCAKEAYKWQPWGQGIRVTVSS
VL: DIQMTQSPSTLSASVGDRVSITCRASQSISSWLAWYQQKPGKAPKLLIYKASNLDSGVPSRFSGSGSGTDFTLTISSLQPDDFATYYCQQYNSYSYTFGQGTKLEIK
For the molecule B2, the binding entry with rat ASIC1 (rat) [1] is given as “binds”.

B3: H1M6718N (antibody, mouse IgG1, V domains shown)
VH: EVQLLESGGGLVQPGGSLRLSCAASGFTFSSFAMSWVRQAPGKGLEWVSGISGSGGGTHYADSVKGRFTISRDNSKNMVYLQMNSLRAEDTAAYYCAKEAYKWQPWGQGTLVTVSS
VL: DIQMTQSPSTLSASVGDRVIITCRASQRISSWLAWYQQKPGKAPNLLIYKASILESGVPSRFSGSGSGTEFTLTISSLQPDDFATYYCQQYNSYSYTFGQGTKLEIK
For the molecule B3, the binding entry in the test with rat ASIC1 (rat) [1] and with rat ASIC1 (rat) [2] was “binds” throughout.

B4: H4H6366P (antibody, human IgG4, V domains shown)
VH: EVQLVESGGDLIQPGGSLRLSCIASGFTFRGYAMSWVRQAPGEGLDWVSGISSGGGNTYYADSVKGRFTISRDNSKNTLYLQMNSLRVEDTAVYYCAKDRGGVRDFYYGLDVWGQGTTVTVSS
VL: DIQMTQSPSTLSASVGDRVTITCRASQSIYSWLAWYQQKPGKAPKLLIYKASSLESGVPSRFSGSGSGTDFTLTISSLQPDDFTTYYCQQYLSYSRTFGQGTKVEIK
In the case of B4, the binding entry with rat ASIC1 (rat) [1] and with rat ASIC1 (rat) [2] was “binds” throughout.

B5: H3M6726N (antibody, V domains shown)
VH: EVQLLESGGVLVQPGGSLRLSCAASGFNFNNYDMSWVRQAPGKGLEWVSVISASGRNTYYADSVKGRFTISRDNSKISLYLQMNSLRPEDTAVYYCAKDHLVHYYYGMDVWGQGTTVTVSS
VL: DIMMTQSPLSLSVTPGEPASISCRSSQSLLHSNGYNYLDWYLQKSGQSPHLLIYLGSNRASGVPDRFSGSGSGTDFTLKISRVEAEDGGVYYCMQALQTPRTFGQGTKVEIK
Consider B5, for which the binding result with rat ASIC1 (rat) [1] and in the test with rat ASIC1 (rat) [2] was “binds” throughout.

B6: H3M7118N (antibody, V domains shown)
VH: EVQLLESGGGLVQPGGSLRLSCAASGFTFRNYAMSWVRQAPGKGLEWVSAINGGGDSTYYADSVKGRFTISRDNSKNTLYLQMNSLRAEDTAVYYCAKEEGDWNYVGYGYYYYYGMDVWGQGTTVTVSS
VL: DIQMTQSPSSMSASVGDRVTITCRASQGISSWLAWYQQKPGKAPKLLIYAASSLQSGVPSRFSGSGSGTDFTLTIRSLQPEDFATYYCQQANSFPYTFGQGTKLEIK
For B6, the binding entry in the test with rat ASIC1 (rat) [1] and with rat ASIC1 (rat) [2] was “binds” in each case.
